PubChem BioAssay AID1508597, Cure First, 2020
This is an unselected part of the about 2,100 reagents, in one setting of the screen. 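Calls flag viability under 80% in either arm, not effects specific to rucaparib; the reference for percent is not stated.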 Some reagents were tested in more than one well and are listed for each. No sequences are given here. Not given: the 100% reference.

- Assay: 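Knock-downs altering ovarian cancer cell survival with or without PARP inhibitor rucaparib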 (primary screen)
- System: human ovarian carcinoma lines grown from tumours: OCI-P5x (papillary serous) and OCI-C5x (clear cell)
- Knock-down reagent: siRNA pool against human genes, 1.25 pmol siRNA per well
- Time to read-out: 72 h or 96 h, depending on the cell culture
- Challenge: rucaparib 20 µM (about IC30) or vehicle, present until read-out
- Rucaparib or vehicle: Vehicle
- Cell line: OCI-C5x (clear cell)
- Measurement: 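Luminescent ATP-based viability assay read 72 or 96 h after transfection, depending on culture, given as normalised percent viability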
- Direction: viability, normalised: higher = more viable cells remaining
- Rule for the call: 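a well counts as a hit if its normalised viability is under 80 percent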
- Calls: active = viability under 80%; inactive = viability 80% or more

no.	target gene	technical replicate	viability, normalised (%)	outcome
1	KAT6A	1	37.3	active
2	KAT6A	2	28.9	active
3	KAT6A	3	43.3	active
4	KDM5B	1	44.8	active
5	KDM5B	2	42.1	active
6	KDM5B	3	34.5	active
7	SETD1A	1	42.7	active
8	SETD1A	2	37.6	active
9	SETD1A	3	49.9	active
10	INO80E	1	72	active
11	INO80E	2	75.1	active
12	INO80E	3	66.9	active
13	P2RY2	1	51.9	active
14	P2RY2	2	36	active
15	P2RY2	3	39.6	active

Sorted by “viability, normalised (%)” (descending): 2 of the entries above
target gene	technical replicate	viability, normalised (%)	outcome
P2RY2	3	39.6	active
P2RY2	2	36	active

The results go on:
no.	target gene	technical replicate	viability, normalised (%)	outcome
16	PCK2	1	75.5	active
17	PCK2	2	54.8	active
18	PCK2	3	58.6	active
19	RCOR2	1	50	active
20	RCOR2	2	51.6	active
21	RCOR2	3	52.2	active
22	JARID2	1	48.6	active
23	JARID2	2	34.6	active
24	JARID2	3	47.2	active
25	MBD4	1	47	active
26	MBD4	1	58.1	active
27	MBD4	2	43	active
28	MBD4	2	62	active
29	MBD4	3	61.4	active
30	MBD4	3	42.9	active
31	SBNO1	1	42.9	active
32	SBNO1	2	36.5	active
33	SBNO1	3	57.1	active
34	CHTOP	1	33.4	active
35	CHTOP	2	44.9	active
36	CHTOP	3	38.3	active
37	CPS1	1	59.3	active
38	CPS1	2	58.1	active
39	CPS1	3	50.5	active
